The source of these data is PMC7488466.

No constants are given. Whether binding was seen depends on the method and setting. For part of these data: Binding can be weak; no strength is given. Tags and fused reporters may be left off the sequences shown.

Test in all cases: two-hybrid; Matchmaker GAL4 Two-Hybrid System 3 (Clontech); phyllogens fused to the DNA-binding domain (bait), MTFs and RAD23C/D fused to the activation domain (prey); graded by yeast growth on -LW, -LWH, -LWH+3AT and all media
The target in test [1] is PHYL1FBP fused to the GAL4 DNA-binding domain (Ca. P. aurantifolia FBP strain).
In test [2] the target is PHYL1PvWB fused to the GAL4 DNA-binding domain (Ca. P. asteris PvWB strain).
The target of test [3] is PHYL1OY fused to the GAL4 DNA-binding domain (Ca. P. asteris OY strain).
The target of test [4] is PHYL1PYR fused to the GAL4 DNA-binding domain.
The target in test [5] is PHYL1JWB fused to the GAL4 DNA-binding domain (Ca. P. ziziphi JWB strain).
Test [6] concerns the target PHYL1PWB fused to the GAL4 DNA-binding domain.
Test [7] has as its target PHYL1PnWB fused to the GAL4 DNA-binding domain (Ca. P. aurantifolia PnWB strain).
The target of test [8] is PHYL1MD fused to the GAL4 DNA-binding domain (Ca. P. asteris MD strain).
Test [9] addresses PHYL1SY fused to the GAL4 DNA-binding domain (Ca. P. fragariae SY strain).
Test [10] concerns the target PHYL1SY Q30K/R64N fused to the GAL4 DNA-binding domain (Ca. P. fragariae SY strain).
Test [11] concerns the target PHYL1SY R64N fused to the GAL4 DNA-binding domain (Ca. P. fragariae SY strain).

B1: RAD23D fused to the GAL4 activation domain (protein, UniProt Q84L30 1-378)
chain: MKIFVKTLSGSNFEIEVKPADKVSDVKTAIETVKGAEYPAAKQMLIHQGKVLKDETTLEENNVVENSFIVIMLSKTKASPSGASTASAPAPSATQPQTVATPQVSAPTASVPVPTSGTATAAAPATAASVQTDVYGQAASNLVAGTTLESTVQQILDMGGGSWDRDTVVRALRAAFNNPERAVEYLYSGIPAQAEIPPVAQAPATGEQAANPLAQPQQAAAPAAATGGPNANPLNLFPQGMPAADAGAGAGNLDFLRNSQQFQALRAMVQANPQILQPMLQELGKQNPQLVRLIQEHQADFLRLINEPVEGEENVMEQLEAAMPQAVTVTPEEREAIERLEGMGFDRAMVLEVFFACNKNEELAANYLLDHMHEFEDQ
With B1, the binding result was “binds” in [1]; “binds” in test [2]; “binds” in [3]; “no binding” in test [4]; “binds” in test [5]; “binds” in test [6]. Besides, the binding entry in test [7], in test [8] and in test [9] was “binds” in each case.

B2: SEP4 (aa 57-257) fused to the GAL4 activation domain (domain or fragment, UniProt P29383 57-257)
chain: FCSSPSGMARTVDKYRKHSYATMDPNQSAKDLQDKYQDYLKLKSRVEILQHSQRHLLGEELSEMDVNELEHLERQVDASLRQIRSTKARSMLDQLSDLKTKEEMLLETNRDLRRKLEDSDAALTQSFWGSSAAEQQQQHQQQQQGMSSYQSNPPIQEAGFFKPLQGNVALQMSSHYNHNPANATNSATTSQNVNGFFPGWM
For the molecule B2, the binding entry is recorded as “binds” in [1]; “no binding” in test [2]; “no binding” in test [4]; “binds” in test [5]; “binds” in [6]; “binds” in test [7]. Besides, the binding entry in test [8] was “no binding”; in test [10], “binds”; in test [9], “no binding”; in [11], “binds”.

B3: RAD23C fused to the GAL4 activation domain (protein, UniProt Q84L31 1-419)
chain: MKIFVKTLKGTHFEIEVKPEDSVVDVKKNIESVQGADVYPAAKQMLIHQGKVLKDETTIEENKVAENSFIVIMMNKSKPASAAASSASAGTSQAKSIPPSTSQPSISPQTPASVSAPVAPAPTRPPPPAPTPTPAPVAATETVTTPIPEPVPATISSSTPAPDSAPVGSQGDVYGQAASNLAAGSNLESTIQQILDMGGGTWDRETVVLALRAAFNNPERAVEYLYTGIPEQAEVPPVARPPASAGQPANPPAQTQQPAAAPASGPNANPLDLFPQGLPNVGGNPGAGTLDFLRNSQQFQALRAMVQANPQVLQPMLQELGKQNPNLMRLIQDHQADFLRLINEPVEGGGESGNLLGQMAAGMPQPQAIQVTHEEREAIERLEAMGFERALVLEVFFACNKNEELAANYLLDHMHEFEE
Consider B3, for which the binding entry is “binds” in test [1]; “binds” in test [2]; “no binding” in test [4]; “binds” in test [5]; “binds” in test [6]; “binds” in [7]. Further, the binding entry in [8] and in test [9] was “binds” in each case.
